Experiment in all cases: co-IP; Drosophila S2 cells co-transfected; lysis in 1% NP-40, 10 mM Tris-HCl pH 7.5, 50 mM NaCl buffer; Draper I-HA precipitated with rat anti-HA on Protein G beads at 4 °C overnight; TRAF4-myc detected by anti-myc western blot
A general note: In western blotting, separated proteins are transferred to a membrane and probed.

The target of test [1] is T1, Draper-I-HA (Drosophila) (UniProt Q9W0A0).
T1 sequence: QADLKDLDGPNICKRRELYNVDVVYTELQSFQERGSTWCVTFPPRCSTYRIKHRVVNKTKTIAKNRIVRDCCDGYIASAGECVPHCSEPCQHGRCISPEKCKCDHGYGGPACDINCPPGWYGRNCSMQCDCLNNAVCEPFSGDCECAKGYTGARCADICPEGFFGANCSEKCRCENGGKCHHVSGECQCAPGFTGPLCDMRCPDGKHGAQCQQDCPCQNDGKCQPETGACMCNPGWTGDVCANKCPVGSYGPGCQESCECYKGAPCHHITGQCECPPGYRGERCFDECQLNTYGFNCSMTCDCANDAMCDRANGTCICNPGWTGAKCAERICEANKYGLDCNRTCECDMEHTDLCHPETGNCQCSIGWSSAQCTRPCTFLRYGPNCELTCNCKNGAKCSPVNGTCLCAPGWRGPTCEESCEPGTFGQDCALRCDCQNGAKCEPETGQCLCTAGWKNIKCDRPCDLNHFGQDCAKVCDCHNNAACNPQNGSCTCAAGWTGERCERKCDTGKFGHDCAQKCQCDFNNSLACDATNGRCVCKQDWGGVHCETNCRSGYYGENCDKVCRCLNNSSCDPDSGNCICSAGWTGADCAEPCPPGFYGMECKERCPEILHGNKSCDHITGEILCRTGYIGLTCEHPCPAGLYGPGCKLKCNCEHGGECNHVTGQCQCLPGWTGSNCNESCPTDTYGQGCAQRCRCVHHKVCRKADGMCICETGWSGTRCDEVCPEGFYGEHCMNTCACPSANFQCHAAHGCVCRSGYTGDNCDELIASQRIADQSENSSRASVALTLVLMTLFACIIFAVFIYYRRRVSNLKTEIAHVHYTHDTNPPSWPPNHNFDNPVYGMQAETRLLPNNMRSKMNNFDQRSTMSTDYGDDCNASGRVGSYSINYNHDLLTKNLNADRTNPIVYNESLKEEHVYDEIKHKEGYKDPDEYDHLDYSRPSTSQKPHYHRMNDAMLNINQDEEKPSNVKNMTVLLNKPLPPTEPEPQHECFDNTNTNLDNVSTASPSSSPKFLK

The target of test [2] is T2, Draper I Y949F-HA (Drosophila) (UniProt Q9W0A0).
T2 sequence: T1 sequence with Y933F

The target of test [3] is T3, Draper I Δ826-854-HA (Drosophila) (UniProt Q9W0A0).
T3 sequence: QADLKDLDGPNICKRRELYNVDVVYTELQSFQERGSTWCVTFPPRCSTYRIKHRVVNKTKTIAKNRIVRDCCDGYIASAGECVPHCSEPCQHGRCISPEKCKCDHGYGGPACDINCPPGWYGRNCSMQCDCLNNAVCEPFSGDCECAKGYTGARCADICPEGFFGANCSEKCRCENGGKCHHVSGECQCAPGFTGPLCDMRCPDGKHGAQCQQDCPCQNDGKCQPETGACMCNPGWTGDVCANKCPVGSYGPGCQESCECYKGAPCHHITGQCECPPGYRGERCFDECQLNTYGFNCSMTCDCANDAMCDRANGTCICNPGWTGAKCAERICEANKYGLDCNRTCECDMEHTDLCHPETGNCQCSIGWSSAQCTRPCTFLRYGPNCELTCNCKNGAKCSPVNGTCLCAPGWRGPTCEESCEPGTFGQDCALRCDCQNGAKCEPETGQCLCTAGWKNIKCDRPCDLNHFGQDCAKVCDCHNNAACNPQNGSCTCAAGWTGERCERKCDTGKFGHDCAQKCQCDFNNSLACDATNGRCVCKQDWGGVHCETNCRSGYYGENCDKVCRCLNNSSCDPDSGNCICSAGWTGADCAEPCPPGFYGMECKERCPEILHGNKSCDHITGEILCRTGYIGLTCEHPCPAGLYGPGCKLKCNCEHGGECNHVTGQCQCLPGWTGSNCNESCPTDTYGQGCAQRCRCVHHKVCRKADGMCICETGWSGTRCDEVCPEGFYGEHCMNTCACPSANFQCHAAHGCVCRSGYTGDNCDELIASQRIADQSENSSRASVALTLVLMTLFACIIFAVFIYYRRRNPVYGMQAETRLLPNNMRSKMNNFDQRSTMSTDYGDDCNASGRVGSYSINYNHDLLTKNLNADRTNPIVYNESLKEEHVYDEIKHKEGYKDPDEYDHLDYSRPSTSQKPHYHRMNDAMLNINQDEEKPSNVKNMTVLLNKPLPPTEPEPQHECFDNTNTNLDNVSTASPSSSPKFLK

Test [4] deals with T4, Draper I Δ855-894-HA (Drosophila) (UniProt Q9W0A0).
T4 sequence: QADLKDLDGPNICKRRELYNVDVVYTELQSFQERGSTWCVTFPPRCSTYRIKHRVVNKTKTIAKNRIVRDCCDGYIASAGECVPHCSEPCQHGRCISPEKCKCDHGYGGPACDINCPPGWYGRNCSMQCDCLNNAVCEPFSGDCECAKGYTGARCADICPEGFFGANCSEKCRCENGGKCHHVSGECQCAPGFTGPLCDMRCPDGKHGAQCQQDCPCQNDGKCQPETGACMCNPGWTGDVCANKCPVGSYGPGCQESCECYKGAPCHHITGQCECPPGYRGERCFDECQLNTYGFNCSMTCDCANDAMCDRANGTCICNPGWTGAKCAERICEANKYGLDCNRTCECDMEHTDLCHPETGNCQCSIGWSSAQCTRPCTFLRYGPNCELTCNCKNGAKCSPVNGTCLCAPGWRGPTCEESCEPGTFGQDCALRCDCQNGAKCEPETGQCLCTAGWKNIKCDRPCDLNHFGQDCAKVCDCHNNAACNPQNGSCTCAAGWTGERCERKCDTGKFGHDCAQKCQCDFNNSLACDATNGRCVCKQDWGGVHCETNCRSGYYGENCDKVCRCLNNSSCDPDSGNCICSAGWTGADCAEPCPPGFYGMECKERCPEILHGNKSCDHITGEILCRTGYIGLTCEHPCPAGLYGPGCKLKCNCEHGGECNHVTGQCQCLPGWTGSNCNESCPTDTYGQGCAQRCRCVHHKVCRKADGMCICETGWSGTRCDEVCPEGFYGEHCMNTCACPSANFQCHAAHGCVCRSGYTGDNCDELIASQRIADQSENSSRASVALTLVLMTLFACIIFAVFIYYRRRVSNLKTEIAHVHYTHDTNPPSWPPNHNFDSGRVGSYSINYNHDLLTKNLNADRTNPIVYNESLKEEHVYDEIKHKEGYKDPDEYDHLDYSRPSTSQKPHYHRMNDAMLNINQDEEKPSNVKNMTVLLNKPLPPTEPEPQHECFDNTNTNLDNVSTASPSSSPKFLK

Changes are numbered by the printed parent chain. Results are given in words; binding and its absence hold for the method and conditions named. In cells and extracts the contact can be indirect. Binding can be weak; no strength is given. Where a sequence is shown, tags or fusion partners need not be part of it.

On to “C-terminal TRAF domain (TD) of TRAF4, myc-tagged (Drosophila) (domain or fragment)”, for which the binding entry in test [1] is “no binding”.
With TRAF4-myc (from UniProt Q9XYR0), the binding result in test [2], in test [1], in test [3] and in test [4] was “binds” in each case.

The record behind these values is publication PMC5303877.
